The list shows a part of the results. The main result of the screen is listed elsewhere. These columns were measured beside it and carry no call. Compounds called inactive in the main read-out are mostly missing here. Potencies come from curve fits of mixed quality, noted in brackets.
Assay: qHTS Assay to Find Inhibitors of Chronic Active B-Cell Receptor Signaling
Settings: ABC-DLBCL IkBa-CBG/CBR reporter, luminescence ratio (green luciferase fused to IkBa over red control in TMD8 lymphoma cells), 4 h
How it was run: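 TMD8 human ABC-DLBCL cells with doxycycline-inducible IκBα–green luciferase fusion and unfused red luciferase, in 0.5% FBS medium; compounds up to 46 uM, 4 h at 37C. Green/red luminescence ratio, filter-overlap corrected, fitted to concentration-response curves.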

[1] = measured here: CBR red luminescence, cell number
[2] = measured here: IkBa-CBG green luminescence

SMILES	AC50 [1]	AC50 [2]
Cc1ccc(OC(=O)c2ccc(C)c(C)c2)cn1	17.8 µM [rising, single point]	
CSc1nc(N)nc(SCC(=O)c2ccccc2)c1C#N	14.1 µM [falling, single point]	
Cc1c(C(=O)NC2CCCCC2C)oc2ccccc12 (configuration not stated)	35.5 µM [falling, single point]	11.2 µM [rising, partial curve, poor fit]
CN(C)S(=O)(=O)c1ccc(-c2csc(N/N=C/c3ccc(O)cc3)n2)cc1	25.1 µM [falling, single point]	
CCN1CCN(c2cc(C)c3cc(NC(=O)c4cc(OC)cc(OC)c4)ccc3n2)CC1	22.4 µM [falling, single point]	
CCOc1cccc(C(=O)NC(=S)Nc2cccc(NC(=O)c3ccccc3Cl)c2)c1	4.61 µM [falling, full curve]	
c1ccc(Cn2nnnc2C(c2cccs2)N2CCc3ccccc3C2)cc1 (configuration not stated)	29.1 µM [rising, single point]	
NC(=O)NC(=O)COC(=O)CNS(=O)(=O)c1ccc(F)c(F)c1F	0.562 µM [rising, full curve, poor fit]	
COc1ccc(Br)cc1CNC(=O)CCSCc1ccc(Cl)cc1	10 µM [falling, partial curve]	
COC(=O)c1cnn(-c2nc3c(C)cccc3s2)c1C	0.517 µM [rising, partial curve, poor fit]	
O=S(Cc1cc(Sc2ccccc2)nc(-c2ccccc2)n1)c1ccccc1 (configuration not stated)	0.164 µM [rising, partial curve, poor fit]	
Cc1ccccc1OCC(=O)OCC(=O)c1ccc[nH]1	0.206 µM [rising, full curve, poor fit]	
COc1ccc(N2CCN(C(CNC(=O)c3ccco3)c3ccco3)CC2)cc1 (configuration not stated)	29.1 µM [rising, single point]	
Cc1ccc(C(=O)Nc2cccc(C(F)(F)F)c2)cc1Nc1ccccn1	0.891 µM [falling, full curve, poor fit]	
C=CCC1(O)CC(c2ccco2)NC(c2ccco2)C1CCC (configuration not stated)	32.6 µM [falling, partial curve, poor fit]	
CCOC(=O)Cc1csc(N/N=C/c2ccc(Cl)cc2)n1	11.2 µM [falling, single point]	
COc1cc(/C=N/NC(=O)c2ccc(N3CCCC3=O)cc2)ccc1O	0.501 µM [rising, full curve, poor fit]	
COc1ccc(CC2(CO)CCN(Cc3ccc(NC(C)=O)cc3)CC2)cc1	6.31 µM [rising, single point]	
CCN1CCN(CC(=O)c2c[nH]c3ccc(C)cc23)CC1	29.1 µM [rising, single point]	
O=C(NC(=S)Nc1ccc(Cl)cc1)c1ccccc1	17.8 µM [falling, single point]	35.5 µM [falling, single point]
COc1ccc(-c2nc3ccc(C(=O)NCc4ccc(C)cc4)cc3nc2-c2ccc(OC)cc2)cc1	0.1 µM [rising, full curve, poor fit]	

SMILES	AC50 [1]	AC50 [2]
CC1(C(=O)NC(=S)N(Cc2ccccc2)c2ccccn2)CC1(Cl)Cl (configuration not stated)	2.91 µM [rising, full curve, poor fit]	
O=C(Nc1ccc(Cl)cc1C(=O)N1CCOCC1)c1cccc([N+](=O)[O-])c1	1.16 µM [rising, partial curve, poor fit]	
CC(C)NC(=O)c1ccc2c(c1)nnn2C	4.61 µM [falling, single point]	
Cc1cccc(NC(=O)CSc2nc(C)nc3c2c(=O)n(C)c(=O)n3C)c1	0.00731 µM [rising, full curve, poor fit]	
CCn1c(SCC(=O)Nc2cc(C)ccc2C)nnc1-c1cnccn1	35.5 µM [falling, single point]	
CCc1ccc(CN(C)Cc2nc(Cc3ccccc3)no2)nc1	12.6 µM [rising, single point]	
Cc1cc(NC(=S)NC(=O)CC(C)C)ccc1Br	12.6 µM [rising, partial curve]	
O=C(NNC(=O)C12CC3CC(CC(C3)C1)C2)c1cccc(O)c1	2.24 µM [falling, full curve]	
CCOC(=O)N1CCN(C(=O)c2ccccc2NC(=O)c2ccc(Br)cc2)CC1	23.1 µM [falling, partial curve]	
CC1=C(C(N)=O)C(c2ccccc2)n2nc(-c3cccc(C)c3)nc2N1 (configuration not stated)	14.6 µM [falling, partial curve, poor fit]	
COCCCNC(=S)Nc1cc2oc3ccccc3c2cc1OC	3.98 µM [rising, single point]	
Cc1ccc(CSc2nnc3c(n2)OC2(Nc4ccccc4-3)C(=O)Nc3ccc(F)cc32)cc1 (configuration not stated)	15.8 µM [falling, partial curve]	
COc1ccc(CC(CC(=O)O)C(=O)Nc2ccccc2)cc1 (configuration not stated)	0.00517 µM [falling, full curve, poor fit]	
CCCN=C1N(CC)C[C@@H]2[C@@H]3C(=O)N(Cc4ccccc4)C(=O)[C@@H]3[C@](C)(C(=O)OC)N12	29.1 µM [rising, single point]	
Cc1cccc(N2CCN(S(=O)(=O)c3c(C)nc4scc(C)n4c3=O)CC2C)c1 (configuration not stated)	35.5 µM [rising, single point]	
CSc1ccc(/C=C/C(=O)OCC(=O)N2CCN(S(=O)(=O)c3ccc(C)cc3C)CC2)cc1	2.06 µM [rising, single point]	
CC(=O)c1c(C)[nH]c(C(=O)OCc2ccc(F)cc2Cl)c1C	5.62 µM [rising, full curve, poor fit]	
COc1ccc(Cl)cc1NC(=O)C[n+]1cccc(C)c1	0.794 µM [falling, full curve, poor fit]	
COc1ccc(COC(=O)c2cc([N+](=O)[O-])ccc2N2CCOCC2)cc1F	0.366 µM [rising, full curve, poor fit]	0.206 µM [falling, full curve]
Nc1nnn(CC(=O)N/N=C/c2cccc(Cl)c2)n1	22.4 µM [rising, single point]	
CNC(=O)c1cc(C(=O)c2ccc(Cl)cc2)c[nH]1	0.631 µM [rising, full curve, poor fit]	

4 records picked at random from those above, as already listed:
SMILES	AC50 [1]	AC50 [2]
COc1ccc(COC(=O)c2cc([N+](=O)[O-])ccc2N2CCOCC2)cc1F	0.366 µM [rising, full curve, poor fit]	0.206 µM [falling, full curve]
CC(=O)c1c(C)[nH]c(C(=O)OCc2ccc(F)cc2Cl)c1C	5.62 µM [rising, full curve, poor fit]	
CCOC(=O)Cc1csc(N/N=C/c2ccc(Cl)cc2)n1	11.2 µM [falling, single point]	
Cc1ccc(CSc2nnc3c(n2)OC2(Nc4ccccc4-3)C(=O)Nc3ccc(F)cc32)cc1 (configuration not stated)	15.8 µM [falling, partial curve]	

Remaining list, next part:

SMILES	AC50 [1]	AC50 [2]
CCn1c(SCC(=O)NC2CCCC2)nnc1C(C)NC(=O)c1ccccc1Br (configuration not stated)	1.26 µM [rising, full curve, poor fit]	
COc1ccc2nc(N=Nc3ccc(N(C)C)cc3)sc2c1	3.98 µM [falling, full curve, poor fit]	
O=C(N/N=C/c1ccccc1OC(=O)c1ccc2c(c1)OCO2)c1ccccc1	11.6 µM [falling, partial curve]	
Cc1cc(C(=O)Nc2ccc(OCc3ccccc3)cc2)c(C)o1	12.6 µM [falling, single point]	
COc1ccc(S(=O)(=O)Nc2ccc3c(c2)C(=O)N([C@H](C)CO)C[C@H](C)[C@@H](CN(C)S(=O)(=O)c2cccs2)O3)cc1	1.3 µM [rising, partial curve, poor fit]	
O=C(C1=C(O)C(=O)N(CC2CCCO2)C1c1ccccc1Cl)c1ccco1 (configuration not stated)	6.31 µM [rising, single point]	
CCOC(=O)C1CN(S(=O)(=O)c2ccc(C)cc2)CCN1S(=O)(=O)c1ccc(C)cc1 (configuration not stated)	29.1 µM [rising, single point]	
CC(CCc1ccccc1)NC(=O)CN1CCN(c2ccc(O)cc2)CC1 (configuration not stated)	14.1 µM [rising, single point]	
CCOC(=O)c1cccc(NC(=O)c2cc3ccccc3o2)c1	11.2 µM [falling, partial curve, poor fit]	
O=C(O)CCN1C(=O)/C(=C\c2cccc(OCc3ccccc3)c2)SC1=S	0.501 µM [falling, full curve, poor fit]	
COc1ccc(C2NCCc3c2[nH]c2ccccc32)cc1COc1ccc(F)cc1 (configuration not stated)	29.1 µM [falling, single point]	
N#C/C(=N\Nc1ccc(Cl)cc1)C(N)=S	15.8 µM [falling, partial curve]	12.6 µM [rising, partial curve, poor fit]
O=C(O)CCCc1ccc2c(c1)CCc1ccccc1-2		0.00461 µM [rising, full curve, poor fit]
CSc1nc2ccc(S(=O)(=O)NC3CCCCC3)cc2s1	6.51 µM [falling, single point]	
Cc1cc(NS(=O)(=O)c2ccc(NC(=O)c3oc4ccccc4c3C)cc2)no1	1.64 µM [falling, partial curve, poor fit]	
O=C(COc1ccccc1Cl)NCCC1=CCCCC1	2.06 µM [rising, partial curve, poor fit]	
O=C(CO/N=C/c1c(Cl)cccc1Cl)NNC(=O)c1ccc(Cl)cc1	15.8 µM [rising, single point]	
O=C(Nc1nc2c(F)cccc2s1)C1CC1	12.6 µM [falling, partial curve]	
Fc1c(F)c(-n2nnc3ccccc32)c(F)c(F)c1Cl	14.1 µM [rising, single point]	
O=C(CSc1nc2[nH]ncc2c(=O)[nH]1)Nc1cccc(Cl)c1	7.31 µM [falling, partial curve]	
COc1ccc(C(=O)Nc2cccc(C(=O)N/N=C/c3ccc(OC)cc3OC)c2)cc1	8.91 µM [falling, partial curve]	

Reference: PubChem BioAssay AID493014 (National Center for Advancing Translational Sciences (NCATS), 2011)
